Laboratory results as given in PubChem BioAssay (NCATS).
Some of the results follow. Shown are side measurements of this screen, not its main read-out; they come without a call. The list favours compounds with an active or inconclusive main result. Potencies come from curve fits of mixed quality, noted in brackets.

Test: A High-Content qHTS Against Drug Library for the Identification of Small Molecules that Inhibit DYT1 Early Onset Primary Dystonia-Associated Cell Pathology (AID 1645839)
Details: HEK293 Flp-In EGFP-delE TorsinA, punctate imaging, 48 h; measured here: cell count cytotoxicity
Outline: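 Induced EGFP-delE TorsinA cells are imaged after 48 h of compound treatment. Punctate fusion-protein distribution gives the %pathology value, while nuclei counts flag toxicity. Wild-type EGFP-hTOR1A cells define the normal pattern.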

CC(=O)OCC(=O)[C@@]12OC(C)(C)O[C@@H]1C[C@H]1[C@@H]3C[C@H](F)C4=CC(=O)C=C[C@]4(C)[C@@]3(F)[C@@H](O)C[C@@]12C
AC50: 15.8 µM [rising, partial curve, poor fit]

Cc1ccc(O)c([C@H](CCN(C(C)C)C(C)C)c2ccccc2)c1
AC50: 0.891 µM [falling, full curve, poor fit]

CN1CCN(CCC(=O)N2c3ccccc3Sc3ccc(C(F)(F)F)cc32)CC1
AC50: 4.47 µM [falling, full curve, poor fit]

NC(=O)C1(N2CCCCC2)CCN(CCCN2c3ccccc3CCc3ccc(Cl)cc32)CC1
AC50: 2.24 µM [falling, full curve, poor fit]

O=C(CCCCCCCCC#CI)Oc1ccccc1
AC50: 2.82 µM [falling, single point]

CCCCOCCOC(=O)c1cccnc1
AC50: 31.6 µM [rising, single point]

N=C1N=C(N)c2cc3ccccc3cc21
AC50: 31.6 µM [falling, partial curve, poor fit]

Oc1c(I)cc(I)c2cccnc12
AC50: 2.82 µM [falling, full curve, poor fit]

CCN(CC)CCOc1ccccc1C(=O)CCc1ccccc1
AC50: 20 µM [falling, partial curve, poor fit]

C=C1C(=C/C=C2\CCC[C@]3(C)[C@@H]([C@H](C)/C=C/[C@@H](O)C4CC4)CC[C@@H]23)C[C@@H](O)C[C@@H]1O
AC50: 10 µM [falling, partial curve]
